Assay results as given in PMC10792358 (Clinical Cancer Research, 2023).

Assay: Plasma pharmacokinetics

In the case of `CCNC(=O)C[C@@H]1N=C(c2ccc(Cl)cc2)c2cc(OC)ccc2-n2c(C)nnc21` [molibresib], the “effect of fulvestrant on the pharmacokinetics of molibresib” value (coadministration, data not shown) is reported as “lack of effect”, the “exposure (Cmax and Ctrough) versus previous monotherapy studies BET115521 and BET116183” value (in combination with fulvestrant, data not shown) is reported as “as anticipated” and the “exposure (Cmax) following repeated administration” value (limited concentration data) is reported as “reduced”.
